Measurements reported in PubChem BioAssay AID720505 (Drosophila RNAi Screening Center, 2013)
Test: 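Knock-downs that reduce calcium influx once internal stores are emptied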 (primary screen). System: Drosophila S2R+ cells. Reagents: long dsRNA against Drosophila genes. Treatment: thapsigargin (2 µM) in calcium-free buffer to empty internal stores, then 2 mM calcium added back. Read-out: 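Stores emptied by 2 µM thapsigargin without calcium, then 2 mM calcium re-added; fluo-4 fluorescence followed by FLIPR in 384-well plates, per-well averaged endpoint, raw; two screen passes, some wells retested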. Scale: calcium signal: higher = more calcium entry after store depletion. Rule for the call: 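About 1500 genes called as lowering calcium entry, by varying amounts, judged against per-plate control wells with STIM1 as positive and Rho1 as negative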. Calls: active = called as lowering calcium entry; inactive = not called.
The screen tested about 20,000 reagents; shown is a random part of those that have a named target and a result. Over the whole deposit, about 2,100 (10%) were called active. 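Raw plate signals without normalisation; calls rest on control-based scores that were not deposited; replicate 2 separates called from uncalled poorly.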 Not stated in the record: the amount of reagent, the time to read-out.

fwd [DRSC08580] — calcium signal, replicate 1 = 73.2; calcium signal, replicate 2 = 130; call = active
Cht7 [DRSC08538] — calcium signal, replicate 1 = 62.8; calcium signal, replicate 2 = 96.9; call = active
Cht7 [DRSC21783] — calcium signal, replicate 1 = 138; calcium signal, replicate 2 = 128; call = inactive
Remo [DRSC19710] — calcium signal, replicate 1 = 87.2; calcium signal, replicate 2 = 107; call = inactive
Fib [DRSC04614] — calcium signal, replicate 1 = 126; calcium signal, replicate 2 = 216; call = inactive
Surf4 [DRSC16875] — calcium signal, replicate 1 = 154; calcium signal, replicate 2 = 199; call = inactive
Gr39a [DRSC01841] — calcium signal, replicate 1 = 89.2; calcium signal, replicate 2 = 3837; call = inactive
Gr39a [DRSC01842] — calcium signal, replicate 1 = 116; calcium signal, replicate 2 = 5445; call = inactive
CG32944 [DRSC12138] — calcium signal, replicate 1 = 105; calcium signal, replicate 2 = 109; call = inactive
CG32944 [DRSC12341] — calcium signal, replicate 1 = 104; calcium signal, replicate 2 = 149; call = inactive
Chs2 [DRSC11830] — calcium signal, replicate 1 = 87.5; calcium signal, replicate 2 = 147; call = inactive
CG15517 [DRSC15056] — calcium signal, replicate 1 = 175; calcium signal, replicate 2 = 164; call = inactive
CG4957 [DRSC02793] — calcium signal, replicate 1 = 196; calcium signal, replicate 2 = 149; call = inactive
nrv3 [DRSC03097] — calcium signal, replicate 1 = 136; calcium signal, replicate 2 = 159; call = inactive
CG13217 [DRSC06339] — calcium signal, replicate 1 = 97.8; calcium signal, replicate 2 = 115; call = inactive
CG9030 [DRSC20139] — calcium signal, replicate 1 = 65.7; calcium signal, replicate 2 = 133; call = active
Cdc37 [DRSC08648] — calcium signal, replicate 1 = 96.7; calcium signal, replicate 2 = 106; call = inactive
Best2 [DRSC09712] — calcium signal, replicate 1 = 104; calcium signal, replicate 2 = 100; call = inactive
CG42720 (retired record) [DRSC22549] — calcium signal, replicate 1 = 78.5; calcium signal, replicate 2 = 141; call = inactive
Oct-TyrR [DRSC11883] — calcium signal, replicate 1 = 103; calcium signal, replicate 2 = 124; call = inactive
Msh6 [DRSC10759] — calcium signal, replicate 1 = 84.6; calcium signal, replicate 2 = 122; call = inactive
tap [DRSC11402] — calcium signal, replicate 1 = 59.8; calcium signal, replicate 2 = 116; call = inactive
CG5112 [DRSC15718] — calcium signal, replicate 1 = 101; calcium signal, replicate 2 = 118; call = inactive
CG9902 [DRSC20212] — calcium signal, replicate 1 = 136; calcium signal, replicate 2 = 135; call = inactive
Cyp318a1 [DRSC19784] — calcium signal, replicate 1 = 132; calcium signal, replicate 2 = 103; call = inactive
BomS3 [DRSC21458] — calcium signal, replicate 1 = 115; calcium signal, replicate 2 = 80.9; call = inactive
Dhod [DRSC16647] — calcium signal, replicate 1 = 116; calcium signal, replicate 2 = 129; call = inactive
ClC-c [DRSC10499] — calcium signal, replicate 1 = 133; calcium signal, replicate 2 = 84.7; call = inactive

A stretch of the results above, for reference:
Remo [DRSC19710] — calcium signal, replicate 1 = 87.2; calcium signal, replicate 2 = 107; call = inactive
Fib [DRSC04614] — calcium signal, replicate 1 = 126; calcium signal, replicate 2 = 216; call = inactive
Surf4 [DRSC16875] — calcium signal, replicate 1 = 154; calcium signal, replicate 2 = 199; call = inactive
Gr39a [DRSC01841] — calcium signal, replicate 1 = 89.2; calcium signal, replicate 2 = 3837; call = inactive
